Data reported in paper PMC11181667.
No constants are given. Whether binding was seen depends on the method and setting. Binding seen in cells or lysates may run through a third protein. Some entries that bind do so weakly or less than the wild type.

Amino acid sequences for entries named in this document (tags omitted).
UniProt Q13546: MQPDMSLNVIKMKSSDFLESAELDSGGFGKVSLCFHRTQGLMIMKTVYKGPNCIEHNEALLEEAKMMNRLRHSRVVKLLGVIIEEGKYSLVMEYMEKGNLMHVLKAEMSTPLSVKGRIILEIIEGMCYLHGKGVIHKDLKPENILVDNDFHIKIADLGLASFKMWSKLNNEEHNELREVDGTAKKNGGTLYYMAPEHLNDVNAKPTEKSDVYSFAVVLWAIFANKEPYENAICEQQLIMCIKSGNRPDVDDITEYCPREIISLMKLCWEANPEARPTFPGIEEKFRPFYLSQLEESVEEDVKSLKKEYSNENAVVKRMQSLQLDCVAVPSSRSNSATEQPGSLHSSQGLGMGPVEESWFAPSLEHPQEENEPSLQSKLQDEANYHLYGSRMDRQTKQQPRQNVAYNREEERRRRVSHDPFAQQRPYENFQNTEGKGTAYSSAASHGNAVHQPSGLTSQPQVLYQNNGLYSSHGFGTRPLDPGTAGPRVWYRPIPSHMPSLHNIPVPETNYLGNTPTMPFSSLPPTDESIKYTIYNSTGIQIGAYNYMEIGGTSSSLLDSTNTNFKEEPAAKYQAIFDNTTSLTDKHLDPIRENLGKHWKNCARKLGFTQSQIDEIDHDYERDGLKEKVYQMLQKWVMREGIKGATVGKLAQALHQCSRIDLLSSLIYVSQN

Legend:
OTUD6B (exogenous) = biological target: T1, OTUD6B (exogenous) (UniProt Q8N6M0); assay: co-IP; exogenous proteins, two-way; Western blot; tags and cells not given
T1 sequence: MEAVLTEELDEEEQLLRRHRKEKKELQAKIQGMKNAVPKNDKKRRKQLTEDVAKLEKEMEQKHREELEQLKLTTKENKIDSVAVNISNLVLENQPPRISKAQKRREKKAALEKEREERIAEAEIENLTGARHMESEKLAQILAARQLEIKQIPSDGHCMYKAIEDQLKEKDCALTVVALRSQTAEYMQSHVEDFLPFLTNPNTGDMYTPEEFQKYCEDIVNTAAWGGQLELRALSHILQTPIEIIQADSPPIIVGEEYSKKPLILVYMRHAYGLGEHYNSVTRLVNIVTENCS

[1] = biological target: T2, OTUD6B (human (endogenous in LUAD cell lines)) (UniProt Q8N6M0); assay: co-IP; endogenous proteins, two-way; cell lysates in NP-40 lysis buffer, rabbit anti-OTUD6B or rabbit anti-RIPK1 antibody with protein G agarose at 4 °C overnight, Western blot
T2 sequence: T1 sequence

[2] = biological target: T2, OTUD6B (human (endogenous in LUAD cell lines)); assay: proximity ligation; in situ proximity ligation assay (PLA), said to be combined with fluorescence in situ hybridization (FISH), in cells

Substance | binding (OTUD6B (exogenous)) | binding [1] | binding [2]
RIPK1 (exogenous) (from UniProt Q13546 1-671) (enzyme) | binds | – | –
Receptor interacting serine/threonine kinase 1 (RIPK1) (from UniProt Q13546 1-671) (enzyme) | – | binds | binds
